{"source": "PubChem BioAssay AID651640", "about": "(Broad Institute, 2012)", "note": "Screen size: about 350,000 compounds; about 6,000 (1.7%) were called active. The shares of active, inactive and inconclusive entries below differ from those in the screen. Rule as the data show it: active = CPE inhibition above about 20% (passing the limit was not always enough); inconclusive = no clear call, values can overlap the other calls; tested in BHK-21 cells."}
{"assay": "protection of cells from dengue 2 killing – plate reader, single concentration, primary screen (AID 651640);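 also: 0% = median of neutral control wells and 100% = median of positive control wells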", "conditions": "DENV2-infected cells, cytopathic effect rescue, at 9.99 µM, active compounds read high"}
{"smiles": "O=C(CNc1ccccc1)N/N=C/c1ccc2c(c1)OCO2", "CPE inhibition": "inactive: -11.5%"}
{"smiles": "Nc1c(Cl)cc(C2=NCCn3nc4ccccc4c32)cc1Cl", "CPE inhibition": "active: 21.5%"}
{"smiles": "COc1ccccc1-c1ccc([C@H]2[C@@H](CO)N[C@@H]2CNC(=O)C2CCCC2)cc1", "CPE inhibition": "active: 24.9%"}
{"smiles": "CO[C@@H]1CN(C)C(=O)c2cc(NS(C)(=O)=O)ccc2OC[C@H](C)N(C(=O)C2CC2)C[C@@H]1C", "CPE inhibition": "inconclusive: 42.3%"}
{"smiles": "CN1c2ccc(-c3ccccc3F)cc2[C@H]2[C@H](CCN2S(=O)(=O)c2ccccc2)[C@@H]1CO", "CPE inhibition": "active: 20.9%"}
{"smiles": "C[C@@H]1CN([C@@H](C)CO)C(=O)c2cccc(NC(=O)c3cnccn3)c2O[C@@H]1CN(C)Cc1ccc(C(F)(F)F)cc1", "CPE inhibition": "active: 21.6%"}
{"smiles": "Cc1ccc(NC(=O)CN2CCOCC2)c(Br)c1", "CPE inhibition": "inactive: 3.32%"}
{"smiles": "COc1cccc2sc(N(CCCN(C)C)C(=O)c3sc4ccccc4c3Cl)nc12", "CPE inhibition": "inactive: -0.395%"}
{"smiles": "CCCC#Cc1cnc2c(c1)C(=O)N([C@@H](C)CO)C[C@H](C)[C@@H](CN(C)C)O2", "CPE inhibition": "inconclusive: 27.4%"}
{"smiles": "COc1ccccc1C(=O)Nc1ccc2c(c1)C(=O)N(C)C[C@@H](OC)[C@H](C)CN(C)[C@@H](C)CO2", "CPE inhibition": "active: 47.5%"}
{"smiles": "Cc1ccc(S(=O)(=O)Nc2cccc3c2O[C@@H](CN(C)Cc2ccc(C(F)(F)F)cc2)[C@H](C)CN([C@@H](C)CO)C3=O)cc1", "CPE inhibition": "inactive: 1.75%"}
{"smiles": "CS(=O)(=O)N1CCc2cc(C(=O)N3CCN(c4ccccc4F)CC3)ccc21", "CPE inhibition": "inconclusive: 21.9%"}
{"smiles": "Cc1cc(C(=O)Nc2cccc3c2O[C@H](CN(C)S(=O)(=O)c2cn(C)cn2)[C@@H](C)CN([C@@H](C)CO)C3=O)n(C)n1", "CPE inhibition": "inconclusive: 32.3%"}
{"smiles": "O=C(Nc1ccccc1)N1CCCCN2[C@@H](CO)[C@@H](c3ccc(Br)cc3)[C@@H]2C1", "CPE inhibition": "active: 32.8%"}
{"smiles": "CCO[C@H]1OC(C(=O)NCc2ccccc2)=C[C@@H](c2cn(C(C)=O)c3ccccc23)[C@@H]1CCCO", "CPE inhibition": "inconclusive: 41.7%"}
{"smiles": "O=C(O)C1C(c2ccccc2)c2ccccc2C(O)C1CO", "note": "(stereo not given)", "CPE inhibition": "inconclusive: 46.7%"}
{"smiles": "O=C(Cn1cccn1)N1CCCC(Nc2ccc(F)c(F)c2)C1", "note": "(stereo not given)", "CPE inhibition": "active: 27%"}
{"smiles": "C[C@H](CO)N1C[C@H](C)[C@H](CN(C)Cc2ccc(-c3ccccc3)cc2)Oc2ccc(NC(=O)NC3CCCCC3)cc2CC1=O", "CPE inhibition": "active: 22%"}
{"smiles": "Cc1ccc(S(=O)(=O)N(C)C[C@H]2Oc3c(NC(=O)c4cnccn4)cccc3C(=O)N([C@@H](C)CO)C[C@@H]2C)cc1", "CPE inhibition": "inactive: -1.65%"}
{"smiles": "Cc1cc(Nc2ccccc2)nc(N2CCN(C(=O)c3ccc4c(c3)OCO4)CC2)n1", "CPE inhibition": "inconclusive: 21.4%"}
{"smiles": "CCOC(=O)[C@H]1[C@H]2COc3ccc(Cl)cc3[C@@H]2N2C(=O)c3cc(C)ccc3NC(=O)[C@@]12C", "CPE inhibition": "inactive: 4.71%"}
{"smiles": "CN(C)c1ccc2c(c1)[C@@H]1C[C@H](CC(=O)NCc3ccc(Cl)cc3)O[C@@H](CO)[C@@H]1O2", "CPE inhibition": "inactive: 3.98%"}
{"smiles": "CC(=O)N1CCCCN2[C@@H](CO)[C@H](c3ccc(-c4ccncc4)cc3)[C@@H]2C1", "CPE inhibition": "inconclusive: 101%"}
{"smiles": "COc1ccc(NC(=O)C(OC(=O)c2ccccc2)c2cccs2)cc1", "note": "(stereo not given)", "CPE inhibition": "inactive: -3.01%"}
{"smiles": "COc1ccc(S(=O)(=O)N(C)C[C@@H]2Oc3c(NC(=O)NC4CCCCC4)cccc3C(=O)N([C@H](C)CO)C[C@@H]2C)cc1", "CPE inhibition": "inactive: -2.13%"}
{"smiles": "CCc1ccc(N2C(=O)CN(Cc3sccc3C)C2=S)cc1", "CPE inhibition": "inconclusive: 28.9%"}
{"smiles": "CN1CCN(C(c2ccc(C(F)(F)F)cc2)c2cc(Cl)c3cccnc3c2O)CC1", "note": "(stereo not given)", "CPE inhibition": "inactive: -1.9%"}
{"smiles": "CC(C)CC#Cc1ccc([C@H]2[C@@H](CO)N3C(=O)CN(C(=O)CN4CCOCC4)C[C@H]23)cc1", "CPE inhibition": "inactive: -8.34%"}
{"smiles": "Cc1cc(NC(=O)CSc2ncnc3ccccc23)no1", "CPE inhibition": "inconclusive: 44.6%"}
{"smiles": "O=C(N[C@@H]1CC[C@H](CCNS(=O)(=O)c2ccccc2)O[C@H]1CO)c1cccnc1", "CPE inhibition": "inactive: -2.95%"}
{"smiles": "Cc1ccc(S(=O)(=O)N(C)C[C@@H]2OCCCC[C@H](C)Oc3ccc(NS(C)(=O)=O)cc3C(=O)N([C@H](C)CO)C[C@@H]2C)cc1", "CPE inhibition": "active: 56.9%"}
{"smiles": "COc1ccc(/C=N/NC(=O)c2cc(-c3ccc4c(c3)OCO4)n[nH]2)cc1OC", "CPE inhibition": "inactive: -9.48%"}
{"smiles": "CC(C)=CCCC(C)CN1CCC(N2CCC(C(=O)N3CCCC3)CC2)CC1", "note": "(stereo not given)", "CPE inhibition": "inconclusive: 27.3%"}
{"smiles": "C[C@@H]1CN([C@H](C)CO)C(=O)c2cc(NC(=O)Nc3ccccc3)ccc2O[C@H]1CN(C)Cc1ccccc1", "CPE inhibition": "inconclusive: 31.1%"}
{"smiles": "Cc1c(C(=O)N2CCCC2(C)C(=O)NCC(C)C)oc2ccccc12", "note": "(stereo not given)", "CPE inhibition": "inconclusive: 27.8%"}
{"smiles": "COc1ccccc1Nc1nc(-c2sc(NC(=O)c3ccco3)nc2C)cs1", "CPE inhibition": "inconclusive: 39.8%"}
{"smiles": "COCCCN(C(=O)c1cc(-c2ccco2)nc2ccccc12)c1c(N)n(Cc2ccccc2)c(=O)[nH]c1=O", "CPE inhibition": "inconclusive: 49.3%"}
{"smiles": "COc1cc(OC)cc(C(=O)NNc2nc3cc4c(cc3s2)OCO4)c1", "CPE inhibition": "inactive: 5.58%"}
{"smiles": "COc1ccc(NC(=O)Nc2cccc3c2O[C@@H](CN(C)S(=O)(=O)c2ccccc2)[C@@H](C)CN([C@@H](C)CO)C3=O)cc1", "CPE inhibition": "inactive: -6.66%"}
{"smiles": "CCN1C(=O)[C@H]2[C@@H](c3ccc(-c4ccc(Cl)c(Cl)c4)c(OC)c3)N[C@@](C)(C(=O)OC)[C@H]2C1=O", "CPE inhibition": "inactive: -12.4%"}
{"smiles": "CCOc1ccc(CC(=O)N/N=C(\\C)c2cccnc2)cc1", "CPE inhibition": "inconclusive: 40.8%"}
{"smiles": "C[C@@H]1CCCCO[C@H](CN(C)C(=O)Cc2ccccc2)[C@@H](C)CN([C@@H](C)CO)C(=O)c2cc(NC(=O)Nc3ccc4c(c3)OCO4)ccc2O1", "CPE inhibition": "inconclusive: 20.4%"}
{"smiles": "Cc1ccccc1Nc1c(-c2cccnc2)nc2ccc(Br)cn12", "CPE inhibition": "inactive: -3.24%"}
{"smiles": "CO[C@H]1CN(C)C(=O)c2ccc(NS(=O)(=O)c3ccc(Oc4ccccc4)cc3)cc2OC[C@H](C)NC[C@H]1C", "CPE inhibition": "active: 21.8%"}
{"smiles": "CCC(=O)N1C[C@H](C)[C@@H](OC)CN(C)C(=O)c2ccc(NC(=O)CC(F)(F)F)cc2OC[C@H]1C", "CPE inhibition": "inactive: 1.94%"}
